At least one compound was matched to its structure with a doubt left.
Biological target: T1, PARP1 (Homo sapiens, UniProt P09874)
T1 construct: chromatin extracts from cells X-irradiated (4Gy) to induce DSBs were examined; endogenous in cells; host or cells: MV411 and MOLM14 AML cells
Experiment: PARP1 trapping in chromatin, Western blot of chromatin extracts of X-irradiated AML cells
Type: cell-based

By UniProt entry, the sequences of proteins in these tests, tags left out.
UniProt P09874, whole entry: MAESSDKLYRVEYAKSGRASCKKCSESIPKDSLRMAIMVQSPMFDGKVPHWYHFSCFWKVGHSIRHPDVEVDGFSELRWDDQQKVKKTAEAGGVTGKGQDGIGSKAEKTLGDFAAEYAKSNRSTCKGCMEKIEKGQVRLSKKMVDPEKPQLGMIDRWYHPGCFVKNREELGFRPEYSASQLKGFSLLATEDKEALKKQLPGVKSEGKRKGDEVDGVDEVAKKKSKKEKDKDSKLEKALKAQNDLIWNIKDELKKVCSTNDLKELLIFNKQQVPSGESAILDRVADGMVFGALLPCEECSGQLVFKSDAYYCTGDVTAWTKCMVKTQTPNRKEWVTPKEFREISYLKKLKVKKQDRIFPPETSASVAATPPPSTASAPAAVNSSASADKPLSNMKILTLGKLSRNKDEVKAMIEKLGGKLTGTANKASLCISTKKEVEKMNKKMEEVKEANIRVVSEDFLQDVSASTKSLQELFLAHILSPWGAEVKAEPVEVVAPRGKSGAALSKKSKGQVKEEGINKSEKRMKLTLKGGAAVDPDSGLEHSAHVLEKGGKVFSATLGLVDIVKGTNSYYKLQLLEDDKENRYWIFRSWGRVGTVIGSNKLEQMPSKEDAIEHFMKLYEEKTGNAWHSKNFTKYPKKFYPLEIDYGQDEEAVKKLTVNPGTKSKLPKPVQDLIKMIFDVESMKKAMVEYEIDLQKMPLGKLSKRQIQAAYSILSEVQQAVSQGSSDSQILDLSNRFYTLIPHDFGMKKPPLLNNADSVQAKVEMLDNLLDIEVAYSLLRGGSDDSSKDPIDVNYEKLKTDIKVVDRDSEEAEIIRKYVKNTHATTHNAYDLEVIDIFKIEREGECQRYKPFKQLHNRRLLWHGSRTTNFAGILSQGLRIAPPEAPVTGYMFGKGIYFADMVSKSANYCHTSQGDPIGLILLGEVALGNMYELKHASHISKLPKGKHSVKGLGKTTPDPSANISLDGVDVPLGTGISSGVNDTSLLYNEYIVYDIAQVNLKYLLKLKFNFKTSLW

Question: For `Nc1ncn([C@H]2C[C@H](O)[C@@H](CO)O2)c(=O)n1` [DAC, Decitabine], which “PARP1 trapping in chromatin” value (DAC (10 nM and 20 nM) alone, 4Gy X-irradiated MV411 and MOLM14) is on record?
Answer: traps PARP1 in chromatin

Question: And the “presence of PARP on chromatin” value (DAC treatment, preliminary results)?
Answer: decreased

— patent publication US10105382B2, “Therapy regimen and methods to sensitize cancer cells treated with epigenetic therapy to PARP inhibitors in ovarian cancer” (THE JOHNS HOPKINS UNIVERSITY, priority 2014, dated 2018)
